From patent publication US20250222062A1, “PEPTIDE INHIBITORS TARGETING THE TBL1-BETA-CATENIN COMPLEX” (THE TRANSLATIONAL GENOMICS RESEARCH INSTITUTE, priority 2022, published 2025)
For part of these data: Part of at least one peptide drawing is inferred or uncertain, most often the ends. Some results were stated once for a whole list of compounds, not compound by compound. Where no end group is shown, it is not given here.

Legend:
[1] = target: T1, TBL1/β-catenin complex (Homo sapiens, UniProt O60907); experiment: Sandwich ELISA peptide library screening in colon cancer cell lysates; assay type: binding; conditions: screening of individual peptides, FIG. 7
T1 construct: TBL1/β-catenin complex from lysates of a colon cancer cell with active Wnt signaling was captured; endogenous in cells; host or cells: HCT15 and SW480 colon cancer cell lysates, cells pre-treated with 20 mM LiCl
T1 sequence (O60907 1-577): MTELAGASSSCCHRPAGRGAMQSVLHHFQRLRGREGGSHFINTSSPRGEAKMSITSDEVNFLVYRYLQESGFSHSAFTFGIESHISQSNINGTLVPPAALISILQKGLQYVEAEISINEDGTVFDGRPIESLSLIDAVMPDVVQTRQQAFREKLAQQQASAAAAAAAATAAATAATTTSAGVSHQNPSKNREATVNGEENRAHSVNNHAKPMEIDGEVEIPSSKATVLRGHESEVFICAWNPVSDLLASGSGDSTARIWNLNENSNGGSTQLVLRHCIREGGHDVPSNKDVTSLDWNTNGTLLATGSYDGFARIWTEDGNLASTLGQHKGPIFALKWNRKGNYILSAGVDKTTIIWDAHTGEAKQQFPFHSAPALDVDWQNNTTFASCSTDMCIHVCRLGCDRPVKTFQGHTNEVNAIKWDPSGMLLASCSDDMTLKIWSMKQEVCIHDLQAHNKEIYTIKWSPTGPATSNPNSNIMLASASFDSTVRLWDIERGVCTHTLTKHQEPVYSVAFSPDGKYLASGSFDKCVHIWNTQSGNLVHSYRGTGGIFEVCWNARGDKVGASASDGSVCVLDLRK
Protocol: To identify the peptide or peptides able to disrupt the interaction between TBL1 and (3-catenin, the sandwich ELISA approach was used (see FIG. 4). In this assay TBL1/β-catenin complex from lysates of a colon cancer cell with active Wnt signaling was captured in a Protein G ELISA 96-well plate coated with antibody that recognizes TBL1. To ensure activation of Wnt signaling, the cells were pre-treated with 20 mM LiCl for 12 h a 37° C. The bound complex was then exposed to peptides from the library either as single peptides or in a combination of 2 or 3 peptides to ensure coverage of the potential binding site between TBL1 and β-catenin. After washing away unbound proteins, the plates were incubated with β-catenin antibodies labeled with ALEXA FLUOR® 488 dye, and the level of β-catenin associated to TBL1 was quantified by a plate reader that detects the ALEXA FLUOR® 488 fluorescence probe. As a form of TBL1/β-catenin complex, we used colon cancer cell lines HCT15 and SW480. All the experiments were conducted in triplicate to ensure statistical significance. To reduce variability the assays were performed by using the EPMOTION® liquid handler. We designed a program that controls the peptide seeding into the ELISA plate wells: 1, 2 or 3 peptides per well, with overlap of one peptide in each well. […]

[2] = system: transcription activity downstream TCF/LEF; experiment: TOPFlash assay in HEK293 TCF/LEF luciferase cells stimulated with LiCl and Wnt3a, peptide treatment; assay type: cell-based
Protocol: FIG. 17 presents a TOPFlash assay to determine transcription activity downstream TCF/LEF: HEK293 cells containing a luciferase downstream TCF/LEF were LiCl was administered 16 hours prior to treatment to stimulate the Wnt pathway. Then the cells were treated with recombinant Wnt3a to stimulate transcription and peptide at 5 μM or BC-2059 at 0.5 μM for 6 hours before luciferase expression was quantified with the One-Step Luciferase assay system.
FIG. 22 presents TOPFlash assay to determine transcription activity downstream TCF/LEF: HEK293 cells containing a luciferase downstream TCF/LEF were with LiCl 16 hours prior to treatment to stimulate the Wnt pathway. Then they were treated with recombinant Wnt3a to stimulate transcription and peptide 16 (short) and 2 (long) at 5 μM or BC-2059 at 0.5 μM for 6 hours before luciferase expression was quantified with the One-Step Luciferase assay system.
FIG. 23 presents TOPFlash assay results to determine transcription activity downstream TCF/LEF dependency to peptides: HEK293 cells containing a luciferase downstream TCF/LEF were with LiCl 16 hours prior to treatment to stimulate the Wnt pathway. Then they were treated with recombinant Wnt3a to stimulate transcription and peptide 16 (short) and 2 (long) at different concentrations (300 μM-0.01 μM) for 6 hours before luciferase expression was quantified with the One-Step Luciferase assay system. […]

[3] = target: T2, TBL1 (Homo sapiens, UniProt O60907); experiment: ELISA assay with dansyl-tagged peptides and TBL1; assay type: binding; conditions: dansyl-tagged peptides, FIG. 16
T2 sequence (O60907 1-577): T1 sequence (O60907 1-577)

Sequence	association with TBL1 (dansyl fluorescence) [3]	other results
RTMQNTNDVETARCTAGTLH [Pep6]		disrupting the interaction between TBL1 and β-catenin [1]: showed efficacy
VDSVLFYAITTLHNLLLHQEGAKMAVRLAGGLQKMVALLNKTNV [Peptide 2]		TCF/LEF transcriptional activity ([2]; different concentrations (300 M-0.01 μM) for 6 hours, FIG. 23): decreases with treatment with increased concentration; levels of luciferase after treatment ([2]; peptide at 5 μM for 6 hours, FIG. 17): decreased levels of luciferase
VVTCAAGILSNLTCNNYKNKMMVCQVGGIEALVRTVLRAGDRED [Peptide 5, longer peptide; in b127 apparently used as CPP peptide]	associate with TBL1	
LKVLSVCSSNKPAIVEAGGMQALGLHLTDPSQRLVQNCLWTLRN [Peptide 4]	associate with TBL1	
NQESKLIILASGGPQALVNIMRTYTYEKLLWTTSRVLKVLSVCS [Peptide 3, longer peptide; in b127-b129 apparently used as CPP peptide]	associate with TBL1	
